Laboratory results reported in US20260167710A1.
Substitutions are numbered along the chain they refer to. These are yes or no findings as the source states them, for the method shown. Binding calls can cover weak binding; strength is not graded here.

B1: 22A06-429 (antibody, V domains shown)
VH: QVQLVQSGAEVKKPGASVKVSCKASGYTFISYGMHWVRQAPGQGLEWMGEINPHGGSTSYAQKFQGRVTMTRDTSTSTVYMELSSLRSEDTAVYYCARPSAAYSHYLGIDMWGRGTLVTVSS
VL: DIQMTQSPSSVSASVGDRVTITCRASQGISSWLAWYQQKPGKAPKLLIYAASRLQSGVPSRFSGSGSGTDFTLTISSLQPEDFATYYCQQANVFPLTFGGGTKVEIKR
B2: 22A06-481 (antibody, V domains shown)
VH: B1 VH with I109L, M111I
VL: B1 VL with S31P, A51G, R53S
B3: 22A06-502 (antibody, V domains shown)
VH: B1 VH with M111L
VL: B1 VL with A25T, A34S, R53S, N92H, F94L

Legend:
human IL-33 (human) [1] = test: MSD-SET (similar procedure), 25 C
human IL-33 (human) [2] = test: affinity studies of Example 22, method and antigen not named

Binder	binding (human IL-33 (human) [1])	binding (human IL-33 (human) [2])
B1	binds	binds
B2	binds	binds
B3	binds	binds
